From PubChem BioAssay AID1671190 (National Center for Advancing Translational Sciences (NCATS), 2021)
Where “and” joins values, the source holds several entries; their conditions need not be identical. Identical values can stand only once. Hit rate of the full screen: of about 580,000 compounds, about 6,100 (1.1%) were called active. This list was built around the results that the source calls inconclusive (neither active nor inactive); the mix of calls is not that of the screen. Calls follow the shape of the dose curve; as a rule, active = well fitted inhibition curve with a large enough effect; inconclusive = small, poorly fitted or top-dose-only effect, or another doubt; inactive = no such curve, though single readings can be large or run the other way. A potency beside an inconclusive call is a rough fit, not a confirmed value.

Sequences of proteins named here, by UniProt entry; tags and fusion partners are left off.
UniProt P18054, whole entry, looked up: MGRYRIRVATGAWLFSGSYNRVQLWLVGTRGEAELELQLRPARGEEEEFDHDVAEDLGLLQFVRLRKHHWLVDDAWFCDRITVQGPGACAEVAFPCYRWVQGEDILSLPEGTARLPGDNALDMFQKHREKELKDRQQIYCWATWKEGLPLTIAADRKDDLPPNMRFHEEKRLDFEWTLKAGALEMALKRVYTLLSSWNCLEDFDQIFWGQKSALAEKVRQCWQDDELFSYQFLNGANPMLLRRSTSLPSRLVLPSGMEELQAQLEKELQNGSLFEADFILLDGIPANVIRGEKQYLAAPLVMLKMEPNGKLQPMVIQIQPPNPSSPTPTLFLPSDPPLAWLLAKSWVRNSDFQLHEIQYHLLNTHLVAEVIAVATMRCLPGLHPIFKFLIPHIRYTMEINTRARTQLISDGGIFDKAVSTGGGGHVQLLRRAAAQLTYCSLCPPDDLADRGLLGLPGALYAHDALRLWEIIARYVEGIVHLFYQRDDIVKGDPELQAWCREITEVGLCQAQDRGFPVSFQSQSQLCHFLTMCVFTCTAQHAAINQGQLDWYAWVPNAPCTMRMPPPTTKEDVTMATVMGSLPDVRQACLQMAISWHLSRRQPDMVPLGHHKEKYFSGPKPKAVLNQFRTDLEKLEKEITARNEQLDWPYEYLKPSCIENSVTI

Target: Polyunsaturated fatty acid lipoxygenase ALOX12 (Homo sapiens) (UniProt P18054)
Assay: Primary qHTS assay for inhibitors of human arachidonate 12S-lipoxygenase (ALOX12): Round 2
Conditions: purified 12hLO, xylenol orange hydroperoxide absorbance; activity change, negative = inhibition: at 108 µM (top of the series) unless noted
Summary of the method: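 Purified human 12hLO (150 nM final) in 25 mM Hepes, 0.01% Triton X-100, pH 7.0 was preincubated 15 min at room temperature with compound. Then 40 uM arachidonic acid was added, 30 min. Hydroperoxide was read by Fe-XO absorbance ratio 573/405 nm.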
% is scaled to controls: 0 for no effect and ±100 for the full control effect; potency is read from the fitted curve at half-maximal effect.

SMILES | Potency | activity change, negative = inhibition
Cc1ccc(C)c(NC(=S)N(Cc2ccc(Cl)cc2)Cc2ccc(C(=O)O)cc2)c1 | active: 44.7 µM | –
CNC(=O)[C@@H]1CN(Cc2cccc(OC(F)(F)F)c2)C[C@H]1CO | – | inactive: 18.3%
CCc1ccccc1OCCCCN1CCCCC1 | inconclusive: 2 µM [inhibitor, full curve] | –
COc1ccc(OC)c(-c2nc(Nc3ccccc3C)sc2CC(=O)O)c1 | inconclusive: 50.1 µM [inhibitor, partial curve, poor fit] | –
Cn1nnnc1SCC(=O)Nc1cc(C(F)(F)F)ccc1N1CCOCC1 | inconclusive: 28.2 µM [inhibitor, partial curve, poor fit] | –
COc1ccc(C2C(C(=O)Nc3ccccc3)=C(C)Nc3nc(-c4ccccc4)nn32)cc1OC (stereo not drawn) | inconclusive: 79.4 µM [inhibitor, partial curve, poor fit] | –
Cc1c2cnn(CC(=O)Nc3c(F)c(F)cc(F)c3F)c(=O)c2c(C)n1Cc1ccccc1F | active: 20 µM | –
CC1CC(C)CN(C(=O)C(C)Cl)C1 (stereo not drawn) | – | inactive: -24.7%
O=C1NCc2ccccc2CC12CCN(Cc1c(F)cccc1Cl)CC2 | inconclusive: 39.8 µM [inhibitor, partial curve] | –
CCc1nc(N)c(C#N)c(-c2ccc(O)c(OC)c2)c1C | – | inactive: 2.67%
O=C(c1ccc(COc2ccccc2Cl)o1)N1CCN(Cc2ccc3c(c2)OCO3)CC1 | inconclusive: 50.1 µM [inhibitor, partial curve, poor fit] and active: 44.7 µM | –
Cc1nc2c(c(-c3ccc(O)cc3)n1)CN(C(=O)c1cccc(Cl)c1)CC2 | – | inactive: -7.37%
CCCc1nc2c(C)cc(Br)cn2c1Cc1ccc(OC)cc1C | – | inactive: -21%
O=C(NC(Cc1c[nH]c2ccccc12)C(=O)O)OCC1c2ccccc2-c2ccccc21 (stereo not drawn) | active: 35.5 µM | –
COc1ccc(O[C@H]2COCCN(C(=O)c3ccc(OC)cc3)C2)cc1 | – | inactive: -2.11% [at 176 µM]
O=C1CC(c2ccc(C(=O)O)cc2)c2sc(C(=O)O)c(-c3ccccc3)c2N1 (stereo not drawn) | inconclusive: 31.6 µM [inhibitor, partial curve, poor fit] | –
CCOc1ccc(S(=O)(=O)Nc2ccc(C(=O)NCC(c3ccco3)N3CCCCC3)cc2)cc1 (stereo not drawn) | inconclusive: 50.1 µM [inhibitor, partial curve, poor fit] | –
COc1ccc(-c2cc3c(c4c2ccn4C)C2CCC3C2)cc1OC (stereo not drawn) | – | inactive: -36.8%
Cc1ccc(S(=O)(=O)N2[C@@H](c3ccc(C(C)(C)C)cc3)C(C(=O)O)=CC[C@H]2c2cccs2)cc1 | inconclusive: 44.7 µM [inhibitor, partial curve, poor fit] | –
CCc1nc(-c2c3n(c(=O)n(CC(=O)NCc4ccccc4)c2=O)CCCC3)no1 | inconclusive: 17.8 µM [inhibitor, full curve, poor fit] | –
O=C(c1ccc2c(c1)N(Cc1cccc(Cl)c1)C(=O)c1ccccc1S2(=O)=O)N1CCN(c2cccc(C(F)(F)F)c2)CC1 | – | inactive: -18.9%

SMILES | Potency | activity change, negative = inhibition
Cc1noc([C@@H]2CN(Cc3c(F)cccc3F)C[C@H]2CO)n1 | – | inactive: 35%
O=C(N/N=C/c1ccc(F)cc1)c1cccc(NC(=O)c2ccc(F)cc2)c1 | inconclusive: 1 µM [inhibitor, full curve, poor fit] | –
COc1cccc(CNC(=O)[C@@H]2CCCN2C(=O)[C@H]2CCCCN2C(=O)c2ccccc2)c1 | inconclusive: 126 µM [inhibitor, single point] | –
O=C(N/N=C\c1c(O)ccc2ccccc12)c1cncc(Br)c1 | inconclusive: 8.91 µM [inhibitor, full curve, poor fit] | –
CNCc1ccncc1 | active: 0.327 µM | –
CCOc1ccc(-c2cnc(NCc3cccc(Cl)c3)n2C)cc1 | inconclusive: 1.78 µM [inhibitor, full curve, poor fit] | –
N=C1/C(=C\c2ccc(SCc3ccccc3)o2)C(=O)N=C2SC(CC(=O)N3CCOCC3)=NN12 | inconclusive: 39.8 µM [inhibitor, partial curve, poor fit] | –
NS(=O)(=O)c1ccc(NC(=S)Nc2ccc(Br)c(Cl)c2)cc1 | inconclusive: 79.4 µM [inhibitor, partial curve, poor fit] | –
COc1ccc(CCc2nc3nccc(-c4ccc(OC)cc4F)n3n2)cc1 | – | inactive: 13.8%
CCN(CC)C(=O)COc1nc(-c2ccco2)c2c(c1C#N)CCC2 | inconclusive: 141 µM [inhibitor, single point] | –
COc1ccc(S(=O)(=O)NCCSCc2ccco2)cc1C | – | inactive: -17.2%
COC(=O)C1=C(C)N(C)C(=NCC2CC2)NC1c1cccc(F)c1 (stereo not drawn) | inconclusive: 56.2 µM [inhibitor, partial curve, poor fit] | –
Cc1nc(N)sc1C(=O)N1N=N1 | inconclusive: 50.1 µM [inhibitor, partial curve, poor fit] | –
CCOc1ccc(OCC(O)CNC2CCN(Cc3ccccc3)CC2)cc1 (stereo not drawn) | – | inactive: 8.14%
C=CCn1c(C)cc(C(=O)COC(=O)c2nn(CCC)c(=O)c3ccccc23)c1C | – | inactive: 35%
Cc1c(Cl)cccc1NC(=S)NC1CCN(Cc2ccccc2)CC1 | inconclusive: 20 µM [inhibitor, full curve, poor fit] | –
C[C@@H]1CN([C@@H](C)CO)C(=O)c2cc(Br)cnc2O[C@@H]1CN(C)Cc1ccc(Oc2ccccc2)cc1 | – | inactive: -11.3%
NNC(=O)CNC(=O)Nc1n[nH]c(=S)s1 | inconclusive: 39.8 µM [inhibitor, partial curve] | –
Cc1cc(Cn2nc(C(=O)NCc3cccc(C(F)(F)F)c3)cc2-c2ccccc2)on1 | inconclusive: 79.4 µM [inhibitor, single point] | –
COc1ccc(S(=O)(=O)N2CCN(c3ccccc3C)CC2)cc1C | inconclusive: 25.1 µM [inhibitor, single point] | –
O=C(c1ccccc1Cl)N1CCC2(CC1)NC(=O)N(c1cccc(Cl)c1)N2 | inconclusive: 17.8 µM [inhibitor, full curve, poor fit] | –

SMILES | Potency | activity change, negative = inhibition
O=C(Cc1c[nH]c2ncc(-c3ccc(F)cc3)cc12)NCc1cccnc1 | inconclusive: 56.2 µM [inhibitor, partial curve, poor fit] | –
O=C(NC(C1CC1)C1CC1)c1cncc(Br)c1 | inconclusive: 44.7 µM [inhibitor, partial curve, poor fit] | –
CC(C)CC(=O)N1CCc2ccc(S(=O)(=O)N(C)Cc3nccs3)cc2C1 | inconclusive: 89.1 µM [inhibitor, partial curve, poor fit] | –
CN1CCN(C2CN(Cc3cn(Cc4ccccc4)nn3)S(=O)(=O)C2)CC1 (stereo not drawn) | inconclusive: 8.91 µM [inhibitor, full curve] | –
COc1ccc2cc(CNC(=O)c3nn(C)c(=O)c4ccccc34)ccc2c1 | inconclusive: 63.1 µM [inhibitor, partial curve, poor fit] | –
COc1cc(NC(=O)Cn2c(-c3ccc(Cl)cc3)nc(C)cc2=O)cc(OC)c1OC | inconclusive: 50.1 µM [inhibitor, partial curve] | –
COC(=O)c1cccc(NC(=S)N[C@@H]2C=C[C@@H](c3c(C)nn(-c4ccccc4[N+](=O)[O-])c3C)C2)c1 | inconclusive: 50.1 µM [inhibitor, partial curve] | –
O=[N+]([O-])c1cccc2nc(/C=C/c3ccc(O)cc3)ccc12 | inconclusive: 11.2 µM [inhibitor, partial curve, poor fit] | –
O=C(O)/C=C/c1nc(-c2ccccc2)n2ccccc12 | inconclusive: 8.91 µM [inhibitor, full curve, poor fit] | –
N#C/C(=C\c1cc(Br)c(Br)o1)c1nc2ccccc2[nH]1 | active: 11.2 µM | –
C#CCOCCOCCOCCNc1nc(N2CCN(C(=O)Cn3cc(CCO)nn3)CC2)nc(N2CCN(C(=O)[C@H](CCCCN)n3cc(CC(C)O)nn3)CC2)n1 (stereo partly drawn) | inconclusive: 39.8 µM [inhibitor, partial curve, poor fit] | –
CCOC(=O)c1c(NC(C)=O)sc2c(O)c(CN3CCN(CC)CC3)ccc12 | inconclusive: 11.2 µM [inhibitor, full curve] | –
Cc1ccc(C(=O)OCC(=O)N2CCCc3ccccc32)cc1C | inconclusive: 100 µM [inhibitor, partial curve, poor fit] | –
Clc1ccccc1NN=Cc1ccccn1 | inconclusive: 44.7 µM [inhibitor, partial curve, poor fit] | –
CC(=O)c1ccc(NC(=O)/C(=C\c2ccccc2)NC(=O)/C=C/c2ccccc2)cc1 | – | inactive: 0%
O=C(Nc1cccc(C(F)(F)F)c1)C1CC(=O)N(Cc2ccco2)C1 (stereo not drawn) | inconclusive: 89.1 µM [inhibitor, partial curve, poor fit] | –
Oc1ccc(C[C@H]2CNC(=S)N2CC2CCCN2C[C@H](Cc2ccc(O)cc2)N2C[C@H](Cc3ccccc3)N(CC3CCCCC3)C2=S)cc1 (stereo partly drawn) | inconclusive: 56.2 µM [inhibitor, partial curve, poor fit] | –
Cn1c(=S)[nH]c2sc3c(c2c1=O)CCC(C(C)(C)C)C3 (stereo not drawn) | inconclusive: 35.5 µM [inhibitor, single point] | –
O=C(CCc1nnc(CCCc2ccccc2)o1)NCCCC1CCCC1 | inconclusive: 79.4 µM [inhibitor, partial curve, poor fit] | –
CN1CCN(C(CNC(=O)C(=O)Nc2ccc(F)cc2)c2cccnc2)CC1 (stereo not drawn) | – | inactive: -15.1%
COC(=O)C1C(=O)CC(C)(O)C(C(=O)OC)C1c1ccc(OC)cc1 (stereo not drawn) | inconclusive: 0.282 µM [inhibitor, full curve, poor fit] | –
